Source: PMC2243016
No constants are given. Whether binding was seen depends on the method and setting. In cells and extracts the contact can be indirect. Binding calls can cover weak binding; strength is not graded here.

Target: N-terminal CycG-region (GST fusion) (Drosophila melanogaster)
Assay: pull-down; GST-CycG fusion proteins on beads, in vitro translated 35S-Corto, autoradiography; only the target purified

binding: binds
B1: In vitro translated Corto protein (35S-labelled) (protein, UniProt P41046 1-550)
chain: MTMAACYANYDMSSLSHGMSALSALQQQQQQQQQQHSQTQQQHHHQQQQQHMYHAAVAAHQQQLLQQQQQQQHHRHHHQPANTSSSSNSRHSHAAATQTQVAAAVANSRQQQQQQQQQQQQQQQQQTASSNSNAAPAPSPQKDYSIPLHVDCSVEYELPNQPKPPAGQRVEPLLMIHPCYFRKMESQRRSPFVNNMHATARAVSSSSLSSGAALGGGGSGAAVATAPSSSAARRGARAATSAQQQQQQQQRYQQQQQQLRQQHQQMSQMSQQAHYPQQQSSLVRQHQQQQQQQQQQQRASSNQSQRQSQSQSQSQSHAANSAAAAAAQASIAAAAAGQWDQLAALAARTALTPHHMLHPHSHYAAKGSGGGAGGGKRDAMISGSYGQTAVASGKLQQSQVQQQQPQQQQQHCLPPPPWDATSMLMDRSPMATVPSNYQAGPDTNPMRLYSATPTAGAASGGSASVGGGGAVSGAGATGAVNTATDKLSGKYRQYLRSQRMHPYAAAASLNLAAAAAAAGQTSFVPFSSAATAVAATPTFQHLPQISCYNV
modifications: 35S label
